Test results from patent publication US20230137790A1, “STABLE INJECTABLE EPINEPHRINE FORMULATIONS INCLUDING A METAL-CHELATING AGENT” (Amphastar Pharmaceuticals, Inc., priority 2020, published 2023).
Like-named read-outs stand apart in the source and are kept apart here.

## O=C([O-])CN(CCN(CC(=O)[O-])CC(=O)O)CC(=O)O.[Na+].[Na+] [EDTA, ethylene diamine tetra-acetate disodium]
EDTA Concentration Level 1 μg/mL
  Zinc Bound to EDTA: 0.19 µg/mL
EDTA Concentration Level 2 μg/mL
  Zinc Bound to EDTA: 0.4 µg/mL
EDTA Concentration Level 4 μg/mL
  Zinc Bound to EDTA: 0.8 µg/mL
EDTA Concentration Level 8 μg/mL
  Zinc Bound to EDTA: 1.6 µg/mL
EDTA Concentration Level 10 μg/mL
  Zinc Bound to EDTA: 1.9 µg/mL
EDTA Concentration Level 20 μg/mL
  Zinc Bound to EDTA: 3.9 µg/mL
